Measurements from paper PMC5974179.
Results are given in words; binding and its absence hold for the method and conditions named. In cells and extracts the contact can be indirect. Some binding calls cover weakened binding; strength is not graded here.

Sequences of proteins named here, by UniProt entry; tags and fusion partners are left off.
UniProt P08670: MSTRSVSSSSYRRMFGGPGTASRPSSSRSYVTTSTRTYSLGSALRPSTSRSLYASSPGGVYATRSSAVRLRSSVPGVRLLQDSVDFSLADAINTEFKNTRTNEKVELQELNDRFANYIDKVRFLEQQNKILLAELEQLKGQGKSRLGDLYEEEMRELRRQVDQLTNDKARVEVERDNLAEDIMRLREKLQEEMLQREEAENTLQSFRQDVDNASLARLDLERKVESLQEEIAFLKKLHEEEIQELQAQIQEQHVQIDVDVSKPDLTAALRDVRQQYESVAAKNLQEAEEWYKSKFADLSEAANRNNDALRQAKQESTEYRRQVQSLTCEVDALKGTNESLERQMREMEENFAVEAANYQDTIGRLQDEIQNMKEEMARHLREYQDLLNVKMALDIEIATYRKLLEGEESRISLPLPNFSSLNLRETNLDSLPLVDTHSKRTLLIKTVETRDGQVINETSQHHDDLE
UniProt Q05397: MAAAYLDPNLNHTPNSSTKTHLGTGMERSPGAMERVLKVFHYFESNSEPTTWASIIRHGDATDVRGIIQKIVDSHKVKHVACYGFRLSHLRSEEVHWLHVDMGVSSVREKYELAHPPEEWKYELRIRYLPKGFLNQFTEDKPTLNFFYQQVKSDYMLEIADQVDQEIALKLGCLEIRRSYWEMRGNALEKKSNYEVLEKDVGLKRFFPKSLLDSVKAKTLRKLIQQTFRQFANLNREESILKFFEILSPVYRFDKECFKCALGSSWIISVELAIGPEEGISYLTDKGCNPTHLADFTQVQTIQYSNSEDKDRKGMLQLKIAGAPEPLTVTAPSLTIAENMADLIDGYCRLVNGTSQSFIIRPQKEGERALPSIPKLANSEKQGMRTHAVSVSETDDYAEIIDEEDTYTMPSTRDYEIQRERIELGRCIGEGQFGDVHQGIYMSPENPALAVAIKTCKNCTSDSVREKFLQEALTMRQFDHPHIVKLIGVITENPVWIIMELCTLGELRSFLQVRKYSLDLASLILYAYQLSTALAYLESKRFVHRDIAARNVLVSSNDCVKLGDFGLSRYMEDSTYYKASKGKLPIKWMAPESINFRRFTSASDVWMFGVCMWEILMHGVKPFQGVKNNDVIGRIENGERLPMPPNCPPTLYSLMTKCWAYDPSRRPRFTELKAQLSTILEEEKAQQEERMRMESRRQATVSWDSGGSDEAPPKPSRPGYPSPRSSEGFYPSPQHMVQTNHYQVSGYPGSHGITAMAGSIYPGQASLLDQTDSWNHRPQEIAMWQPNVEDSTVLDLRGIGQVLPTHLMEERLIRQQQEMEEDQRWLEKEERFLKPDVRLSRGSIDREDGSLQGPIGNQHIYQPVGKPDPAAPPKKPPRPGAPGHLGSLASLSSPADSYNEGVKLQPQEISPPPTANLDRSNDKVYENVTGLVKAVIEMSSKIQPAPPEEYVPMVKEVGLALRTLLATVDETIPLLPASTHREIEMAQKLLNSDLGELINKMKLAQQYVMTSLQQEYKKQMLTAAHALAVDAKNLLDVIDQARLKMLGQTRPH

Columns and labels:
[1] = molecular target: VIM (human (endogenous in SW480)) (UniProt P08670); test: co-IP; protein extracts from SW480 cells (500 ug/sample); CoIP with antibodies against FSTL1 or VIM; western blot
[2] = molecular target: T1, Follistatin-like protein 1 (FSTL1) (human (endogenous in SW480)) (UniProt Q12841); test: as above
T1 sequence: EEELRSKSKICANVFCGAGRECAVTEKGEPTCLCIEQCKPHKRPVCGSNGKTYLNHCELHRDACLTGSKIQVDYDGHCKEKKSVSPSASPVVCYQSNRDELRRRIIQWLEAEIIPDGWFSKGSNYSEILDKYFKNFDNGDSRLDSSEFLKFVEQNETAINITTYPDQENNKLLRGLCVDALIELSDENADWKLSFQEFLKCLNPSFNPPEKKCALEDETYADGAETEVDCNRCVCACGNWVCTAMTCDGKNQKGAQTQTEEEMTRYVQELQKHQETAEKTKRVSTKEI

Row | binding [1] | binding [2] | Substance
1 | binds | no binding | Focal adhesion kinase (FAK) (from UniProt Q05397 1-1052)
2 |  | binds | VIM (from UniProt P08670 1-466)
